Source: article PMC7280502, “Structure and mechanism of the Nap adhesion complex from the human pathogen Mycoplasma genitalium” (Nature Communications, 2020)
No constants are given. Whether binding was seen depends on the method and setting. Some results given as binding are weak or reduced against the parent protein; the word gives no strength. For some of these results: Tags and fused reporters may be left off the sequences shown.

Assays:
[1] = target: P140–P110 heterodimer of the extracellular regions (P140 residues 23–1351 and P110 residues 23–938) (Mycoplasma genitalium (strain G37)) (UniProt P20796); assay: SEC-MALS; Superdex 200 increase 10/300 GL, 50 mM Tris pH 7.4, 150 mM NaCl; 150 µl of P140, P110 and P140–P110 at 0.6, 2 and 0.5 mg/ml; both purified
[2] = target: P140–P110 heterodimer of the in situ Nap complex (Mycoplasma genitalium G37 (endogenous)) (UniProt P20796); assay: cryo-electron tomography with sub-tomogram averaging; in situ Nap on mildly lysed M. genitalium G37 ghost cells; 15 Å; rigid-body fitting of P110 alone and P140 alone; open conformation
[3] = target: T1, full-length P140 (Mycoplasma genitalium G37 (endogenous)) (UniProt P20796); assay: cryo-EM structure; single-particle cryo-EM of the Nap complex purified from the M. genitalium P110His strain in octylglucoside, 25 μg/ml; 9.8 Å; rigid-body fitting of P140 alone and P110 alone; closed conformation; both purified
T1 sequence: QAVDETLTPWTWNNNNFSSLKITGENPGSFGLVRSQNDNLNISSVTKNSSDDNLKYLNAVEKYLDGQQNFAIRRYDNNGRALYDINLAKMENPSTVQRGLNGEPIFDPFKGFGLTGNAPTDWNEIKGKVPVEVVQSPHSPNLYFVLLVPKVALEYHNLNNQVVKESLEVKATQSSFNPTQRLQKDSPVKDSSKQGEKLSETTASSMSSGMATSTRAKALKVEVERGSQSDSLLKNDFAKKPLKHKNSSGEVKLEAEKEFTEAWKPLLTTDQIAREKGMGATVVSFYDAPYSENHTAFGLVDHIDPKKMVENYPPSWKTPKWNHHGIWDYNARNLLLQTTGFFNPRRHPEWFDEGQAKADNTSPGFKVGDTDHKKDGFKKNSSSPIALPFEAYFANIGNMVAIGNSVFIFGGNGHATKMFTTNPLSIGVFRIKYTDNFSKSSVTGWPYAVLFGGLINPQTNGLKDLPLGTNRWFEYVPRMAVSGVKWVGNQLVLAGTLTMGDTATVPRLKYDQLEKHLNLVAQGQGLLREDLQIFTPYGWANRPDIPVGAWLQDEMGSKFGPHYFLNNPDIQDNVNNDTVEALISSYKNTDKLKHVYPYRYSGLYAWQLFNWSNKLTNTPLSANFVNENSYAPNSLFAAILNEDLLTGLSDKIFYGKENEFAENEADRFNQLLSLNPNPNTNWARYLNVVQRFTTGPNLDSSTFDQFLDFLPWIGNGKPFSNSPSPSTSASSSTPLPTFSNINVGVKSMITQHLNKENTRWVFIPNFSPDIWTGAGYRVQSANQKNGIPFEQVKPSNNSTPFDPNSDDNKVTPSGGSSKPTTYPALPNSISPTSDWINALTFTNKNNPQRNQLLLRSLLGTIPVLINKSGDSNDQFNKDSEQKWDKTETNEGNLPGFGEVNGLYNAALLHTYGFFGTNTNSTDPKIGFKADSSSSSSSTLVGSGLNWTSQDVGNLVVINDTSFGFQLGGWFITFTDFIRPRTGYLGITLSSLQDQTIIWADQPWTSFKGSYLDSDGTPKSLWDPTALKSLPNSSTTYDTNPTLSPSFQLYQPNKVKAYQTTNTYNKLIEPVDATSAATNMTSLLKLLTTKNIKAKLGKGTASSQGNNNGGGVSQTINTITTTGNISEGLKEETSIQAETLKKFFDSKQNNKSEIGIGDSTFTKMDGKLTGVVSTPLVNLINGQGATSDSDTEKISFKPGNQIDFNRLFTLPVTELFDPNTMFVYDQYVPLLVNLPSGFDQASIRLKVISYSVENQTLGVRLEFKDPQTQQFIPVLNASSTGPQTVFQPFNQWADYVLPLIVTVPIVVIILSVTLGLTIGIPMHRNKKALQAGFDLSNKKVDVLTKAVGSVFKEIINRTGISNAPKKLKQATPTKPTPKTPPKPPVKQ

[4] = target: T1, full-length P140 (Mycoplasma genitalium G37 (endogenous)); assay: cryo-electron tomography with sub-tomogram averaging; in situ Nap on mildly lysed M. genitalium G37 ghost cells; 15 Å; rigid-body fitting of P110 alone and P140 alone; open conformation

Molecule: P140–P110 heterodimer of the extracellular regions (P140 residues 23–1351 and P110 residues 23–938) (from UniProt P20796 23-1351; P22747 23-938) (complex)
- binding [1]: no binding (tested: 0.5 mg/ml)

Molecule: P140–P110 heterodimer of the in situ Nap complex (from UniProt P20796 59-1444; P22747 26-1053)
- binding [2]: binds

B1: full-length P110 with a 6xHistag insertion (P110His strain) (protein, UniProt P22747 26-1053)
chain: NTFLVKEDSKNVTAYTPFATPITDSKSDLVSLAQLDSSYQIADQTIHNTNLFVLFKSRDVKVKYESSGSNNISFDSTSQGEKPSYVVEFTNSTNIGIKWTMVKKYQLDVPNVSSDMNQVLKNLILEQPLTKYTLNSSLAKEKGKTQREVHLGSGQANQWTSQRNQHDLNNNPSPNASTGFKLTTGNAYRKLSESWPIYEPIDGTKQGKGKDSSGWSSTEENEAKNDAPSVSGGGSSSGTFNKYLNTKQALESIGILFDDQTPRNVITQLYYASTSKLAVTNNHIVVMGNSFLPSMWYWVVERSAQENASNKPTWFANTNLDWGEDKQKQFVENQLGYKETTSTNSHNFHSKSFTQPAYLISGIDSVNDQIIFSGFKAGSVGYDSSSSSSSSSSSSTKDQALAWSTTTSLDSKTGYKDLVTNDTGLNGPINGSFSIQDTFSFVVPYSGNHTNNGTTGPIKTAYPVKKDQKSTVKINSLINATPLNSYGDEGIGVFDALGLNYNFKSNQERLPSRTDQIFVYGIVSPNELRSAKSSADSTGSDTKVNWSNTQSRYLPVPYNYSEGIIDADGFKRPENRGASVTTFSGLKSIAPDGFANSIANFSVGLKAGIDPNPVMSGKKANYGAVVLTRGGVVRLNFNPGNDSLLSTTDNNIAPISFSFTPFTAAESAVDLTTFKEVTYNQESGLWSYIFDSSLKPSHDGKQTPVTDNMGFSVITVSRTGIELNQDQATTTLDVAPSALAVQSGIQSTTQTLTGVLPLSEEFSAVIAKDSDQNKIDIYKNNNGLFEIDTQLSNSVATNNGGLAPSYTENRVDAWGKVEFADNSVLQARNLVDKTVDEIINTPEILNSFFRFTPAFEDQKATLVATKQSDTSLSVSPRIQFLDGNFYDLNSTIAGVPLNIGFPSRVFAGFAALPAWVIPVSVGSSVGILFILLVLGLGIGIPMYRVRKLQDASFVNVFKKVDTLTTAVGSVYKKIITQTGVVKKAPSALKAANPSVKKPAAFLKPPVQPPSKPEGEQKAVEVKSEETKS
- binding [3]: binds

B2: P110 in situ on M. genitalium G37 cells (protein, UniProt P22747 26-1053)
chain: NTFLVKEDSKNVTAYTPFATPITDSKSDLVSLAQLDSSYQIADQTIHNTNLFVLFKSRDVKVKYESSGSNNISFDSTSQGEKPSYVVEFTNSTNIGIKWTMVKKYQLDVPNVSSDMNQVLKNLILEQPLTKYTLNSSLAKEKGKTQREVHLGSGQANQWTSQRNQHDLNNNPSPNASTGFKLTTGNAYRKLSESWPIYEPIDGTKQGKGKDSSGWSSTEENEAKNDAPSVSGGGSSSGTFNKYLNTKQALESIGILFDDQTPRNVITQLYYASTSKLAVTNNHIVVMGNSFLPSMWYWVVERSAQENASNKPTWFANTNLDWGEDKQKQFVENQLGYKETTSTNSHNFHSKSFTQPAYLISGIDSVNDQIIFSGFKAGSVGYDSSSSSSSSSSSSTKDQALAWSTTTSLDSKTGYKDLVTNDTGLNGPINGSFSIQDTFSFVVPYSGNHTNNGTTGPIKTAYPVKKDQKSTVKINSLINATPLNSYGDEGIGVFDALGLNYNFKSNQERLPSRTDQIFVYGIVSPNELRSAKSSADSTGSDTKVNWSNTQSRYLPVPYNYSEGIIDADGFKRPENRGASVTTFSGLKSIAPDGFANSIANFSVGLKAGIDPNPVMSGKKANYGAVVLTRGGVVRLNFNPGNDSLLSTTDNNIAPISFSFTPFTAAESAVDLTTFKEVTYNQESGLWSYIFDSSLKPSHDGKQTPVTDNMGFSVITVSRTGIELNQDQATTTLDVAPSALAVQSGIQSTTQTLTGVLPLSEEFSAVIAKDSDQNKIDIYKNNNGLFEIDTQLSNSVATNNGGLAPSYTENRVDAWGKVEFADNSVLQARNLVDKTVDEIINTPEILNSFFRFTPAFEDQKATLVATKQSDTSLSVSPRIQFLDGNFYDLNSTIAGVPLNIGFPSRVFAGFAALPAWVIPVSVGSSVGILFILLVLGLGIGIPMYRVRKLQDASFVNVFKKVDTLTTAVGSVYKKIITQTGVVKKAPSALKAANPSVKKPAAFLKPPVQPPSKPEGEQKAVEVKSEETKS
- binding [4]: binds
